Data from US20240392037A1 (UNIVERSITY OF PITTSBURGH OF THE COMMONWEALTH SYSTEM OF …, published 2024).
Results are given in words; binding and its absence hold for the method and conditions named. Some results given as binding are weak or reduced against the parent protein; the word gives no strength. For part of these data: Tags and fused reporters may be left off the sequences shown.

Protein sequences, listed by entry. Tags and fused reporters are not part of them. Lines headed by an entry give the natural chain unless they say otherwise; changes in a name come on top.
UniProt P08246: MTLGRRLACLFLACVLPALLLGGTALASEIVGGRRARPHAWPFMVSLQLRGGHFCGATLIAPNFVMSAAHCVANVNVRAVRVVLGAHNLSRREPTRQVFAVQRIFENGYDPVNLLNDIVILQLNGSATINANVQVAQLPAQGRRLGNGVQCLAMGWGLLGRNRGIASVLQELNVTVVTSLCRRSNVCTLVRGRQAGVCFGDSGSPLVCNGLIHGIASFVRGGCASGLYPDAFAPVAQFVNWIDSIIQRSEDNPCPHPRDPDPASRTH

Assays:
[1] = biological target: human neutrophil elastase (NE) polypeptide (human) (UniProt P08246); assay: ELISA on recombinant NE coated at 50 ng/well, anti-FLAG-HRP detection
[2] = biological target: human neutrophil elastase (NE) polypeptide (human) (UniProt P08246); assay: ELISA, NE coated at 50 ng/well, anti-FLAG-HRP detection
[3] = biological target: human neutrophil elastase (NE) polypeptide (human) (UniProt P08246); assay: ELISA, antigen coated at 50 ng/well
[4] = biological target: human neutrophil elastase (NE) polypeptide (human) (UniProt P08246); assay: BLItz, biotinylated recombinant NE on streptavidin biosensor
[5] = biological target: human neutrophil elastase (NE) polypeptide (human) (UniProt P08246); assay: ELISA, NE coated at 50 ng/well
[6] = biological target: human neutrophil elastase (NE) polypeptide (human) (UniProt P08246); assay: ELISA on recombinant NE coated at 50 ng/well

binding [1] | binding [2] | binding [3] | binding [4] | binding [5] | binding [6] | Binder
binds | binds | binds | – | – | – | VH 1D1.43 (other, Expressed in E. coli, purified on Ni-NTA and detected with anti-FLAG antibody; also called Clone #2; #2 (VH)) VH: EVQLVESGGGVVQPGRSLRLSCAASGFTFSNYAMHWVRQAPGKGLEWVAVISYDGSNKYYADSVKGRFTISRDDSTNTLYLQMNNLRAEDTAVYYCAKDLPWEWELDYWGQGTLVTVSS
– | – | – | binds | binds | binds | VH-Fc 1D1.43 (Fc fusion, VH 1D1.43 converted to a bivalent antibody by fusion to human IgG1 Fc; also called VH-Fc ID1.43; not shown: human IgG1 Fc) EVQLVESGGGVVQPGRSLRLSCAASGFTFSNYAMHWVRQAPGKGLEWVAVISYDGSNKYYADSVKGRFTISRDDSTNTLYLQMNNLRAEDTAVYYCAKDLPWEWELDYWGQGTLVTVSS
